# The supplement of paper PMC8166895
# Where “and” joins values, the source holds several entries; their conditions need not be identical. Identical values can stand only once. Counter-ions that a name gives are not always drawn. Some of the results follow. Most entries show no effect beyond the scatter of the controls.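 Differential scanning fluorimetry gave melting temperatures in a one-replicate pilot screen of a library of approved drugs plus clinical or known-target compounds. Hits increasing melting point at least 2 °C were the strongest stabilizers, while negative shifts signify destabilization.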
# Tested on: SARS-CoV-2 main protease (Mpro, nsp5)
# Assay: thermal shift ΔTm of Mpro relative to plate average Tm; higher = stronger thermal stabilization of Mpro (binding)
# Conditions: 10 µM; protein concentration 1 µM
row,SMILES,thermal shift ΔTm of Mpro
1,COc1ccccc1N1CCN(CCCC(=O)c2ccc(F)cc2)CC1 [Fluanisone],0.323 °C
2,NC(=O)NS(=O)(=O)c1ccc(N)cc1 [Sulfanilylurea],0.256 °C
3,CCCCCCCCCCCCCCCCOP(=O)([O-])OCC[N+](C)(C)C [Miltefosine],0.0264 °C
4,Cc1ccsc1/C=C/C1=NCCCN1C [Morantel tartrate],0.283 °C
5,O=C(Nc1cnccc1Cl)N1CCN(Cc2ccc3c(c2)OC(F)(F)O3)CC1,0.141 °C
6,COc1cc(C(C)=O)ccc1O [Apocynin],-0.0623 °C
7,CSc1ccc(OCc2ncc([N+](=O)[O-])n2C)cc1 [Fexinidazole],-0.027 °C
8,O=C(Nc1nccs1)C(c1cc(F)ccc1O)N1Cc2ccccc2C1=O (centres undefined),-0.0863 °C
9,Nc1cc(F)ccc1NC(=O)/C=C/c1cnn(C/C=C/c2ccccc2)c1,0.651 °C
10,Nc1nc(NC2CC2)c2ncn([C@H]3C=C[C@@H](CO)C3)c2n1 [Abacavir],0.0364 °C
11,Nc1nc(NC2CC2)c2ncn([C@H]3C=C[C@@H](CO)C3)c2n1 [Abacavir sulfate],0.0297 °C
12,CC(C)c1cc(C=C(C#N)C#N)cc(C(C)C)c1O,0.14 °C
13,CCOc1ccc2nc3cc(N)ccc3c(N)c2c1 [Ethacridine lactate monohydrate],1.39 °C
14,Nc1nc(-n2cc(C(=O)O)c(=O)c3cc(F)c(N4CC(O)C4)c(Cl)c32)c(F)cc1F [Delafloxacin],0.021 °C
15,CN(Cc1cnc2nc(N)nc(N)c2n1)c1ccc(C(=O)N[C@@H](CCC(=O)O)C(=O)O)cc1 [Methotrexate],0.301 °C
16,O=C(COc1ccc(Cl)cc1)N1CCN(Cc2ccc3c(c2)OCO3)CC1 [Fipexide],0.0393 °C
17,CN1CCN(c2c(F)cc3c(=O)c(C(=O)O)cn4c3c2OCN4C)CC1 [Marbofloxacin],-0.0171 °C
18,CC(C)(C)CC(C)(C)c1ccc(O)c(Cc2ccc(Cl)cc2Cl)c1 [Clofoctol],0.225 °C
19,C[C@H]1[C@H](C)CC[C@]2(C(=O)O)CC[C@]3(C)C(=CC[C@@H]4[C@@]5(C)C[C@@H](O)[C@H](O)[C@@](C)(CO)[C@@H]5CC[C@]43C)[C@H]12 [Asiatic Acid],0.253 °C
20,CC(CCc1ccccn1)(CCc1ccccn1)C(=O)c1ccccc1 [JAK2 Inhibitor V],-0.123 °C
21,CCOC(=O)c1ccc(N)cc1 [Benzocaine],-0.14 °C
22,CCCCCCCCCCCCc1ccc(S(=O)(=O)Nc2nncs2)cc1,-0.348 °C
23,Oc1c(F)cc(-c2cnccc2-c2ccc(N3CCOCC3)cc2)cc1F,-0.0445 °C
24,OC(CCCN1CCCCC1)(c1ccccc1)c1ccccc1 [Diphenidol HCl],-0.0399 °C
25,CCN(CC)CCOC(=O)C(c1ccccc1)c1ccccc1 [Adiphenine HCl],0.134 °C
26,Cc1ncc(Cl)cc1NCc1ccc(C(=O)N[C@@H](CC2CCCC2)C(=O)NC2CC2)s1,-0.213 °C
27,C=CC(C)(C)c1cc(/C=C/C(=O)c2ccc(O)cc2)c(OC)cc1O [Licochalcone A],0.565 °C

row,SMILES,thermal shift ΔTm of Mpro
1,C[C@]12CC[C@@H]3c4ccc(OS(=O)(=O)O)cc4CC[C@H]3[C@@H]1CCC2=O [Estropipate],0.00974 °C
2,COc1cc(NC(C)CCCN)c2ncccc2c1 (centres undefined) [Primaquine Diphosphate],-0.0178 °C
3,O=c1[nH]c(=O)n([C@H]2C[C@H](O)[C@@H](CO)O2)cc1Br [Bromodeoxyuridine (BrdU)],-0.0296 °C
4,Nc1ccc([As](=O)(O)O)cc1 [4-Aminophenylarsonic acid],0.222 °C
5,CCN(c1cc(C#CCN2CCOCC2)cc(C(=O)NCc2c(C)cc(C)[nH]c2=O)c1C)[C@H]1CC[C@H](N(C)CCOC)CC1,0.309 °C
6,CCCCCCCc1ccc(CCc2cccc(O)c2C(=O)O)cc1,0.426 °C
7,Cc1cc(C)cc(Oc2ccc(CNC(=O)[C@H](C)N)cc2C)c1,-0.131 °C
8,Cc1ccc([N+](=O)[O-])cc1S(=O)(=O)N(C)/N=C/c1cnc2ccc(Br)cn12,-0.192 °C and 0.193 °C
9,CC/C(=C(/CC)c1ccc(O)cc1)c1ccc(O)cc1 [Diethylstilbestrol],-0.249 °C
10,CC1=C(/C=C/C(C)=C/C=C/C(C)=C\C(=O)O)C(C)(C)CCC1 [Isotretinoin],0.114 °C
11,NC(N)=Nc1nc(CSCC/C(N)=N/S(N)(=O)=O)cs1 [Famotidine],0.069 °C
12,Cc1cc(-c2ccccc2)nnc1NCCN1CCOCC1 [Minaprine dihydrochloride],0.221 °C
13,Fc1ccc(NC(=S)Nc2cc(Cl)cc(Cl)c2)cc1 [Fluonilid],0.0829 °C
14,COc1ccc(-c2ccc3c(N4CCOCC4)nc(N4C[C@@H](C)O[C@@H](C)C4)nc3n2)cc1CO,0.108 °C
15,C/C(=C\c1ccc(C(=O)O)cc1)c1ccc2c(c1)C(C)(C)CCC2(C)C [TTNPB (Arotinoid Acid)],-0.167 °C
16,CC(C)c1cc2c(N3CCN(C4=NCC(C)(C)S4)CC3)ncnc2s1 [MI-3 (Menin-MLL Inhibitor)],-0.189 °C
17,COc1cc(OC)c(/C=C/S(=O)(=O)Cc2ccc(OC)c(NCC(=O)O)c2)c(OC)c1,0.645 °C
18,C=C[C@H]1CN2CC[C@]3(C(=O)Nc4ccccc43)[C@@H]2C[C@@H]1/C(=C\OC)C(=O)OC [Corynoxeine],-0.0624 °C
19,O=c1[nH]c2ccc(Cl)cc2c(N[C@@H]2CN3CCC2CC3)c1-c1nc2ccccc2[nH]1,-0.354 °C
20,OC(CN1CCN(c2cccc(Cl)c2)CC1)C(c1ccccc1)c1ccccc1 (centres undefined),-0.255 °C
21,Cc1nc(-c2ccc(OCC(C)C)c(C#N)c2)sc1C(=O)O [Febuxostat],-0.074 °C
22,C[C@@H](O)[C@H]1C(=O)N2C(C(=O)[O-])=C(SC3Cn4cnc[n+]4C3)[C@H](C)[C@H]12 (some centres undefined) [Biapenem],-0.0028 °C
23,CN(C)c1ccc(C(=C2C=CC(=[N+](C)C)C=C2)c2ccc(N(C)C)cc2)cc1 [Crystal Violet],-0.164 °C
24,CC(=O)[C@H]1CC[C@H]2[C@@H]3CC=C4C[C@@H](O)CC[C@]4(C)[C@H]3CC[C@]12C [Pregnenolone],0.00904 °C
25,COc1ccc(-c2cc(=O)c3c(OC)cc(OC)c(OC)c3o2)cc1OC [Isosinensetin],-0.0765 °C
26,COc1ccc(CC2c3cc(OC)c(OC)cc3CC[N+]2(C)CCC(=O)OCCCCCOC(=O)CC[N+]2(C)CCc3cc(OC)c(OC)cc3C2Cc2ccc(OC)c(OC)c2)cc1OC (centres undefined) [Atracurium Besylate],0.0126 °C
27,Oc1cc2c(cc1O)[C@@H]1c3ccc(O)c(O)c3OC[C@]1(O)C2 [Hematoxylin],-3.9 °C

row,SMILES,thermal shift ΔTm of Mpro
1,CC(C(=O)O)c1ccc2c(c1)CC(=O)c1ccccc1S2 (centres undefined) [Zaltoprofen],-0.0837 °C
2,CCN(CCO)CCCC(C)Nc1ccnc2cc(Cl)ccc12 (centres undefined) [Hydroxychloroquine sulfate],0.279 °C
3,Cc1nc(Nc2ncc(C(=O)Nc3c(C)cccc3Cl)s2)cc(N2CCN(CCO)CC2)n1 [Dasatinib Monohydrate],-0.151 °C
4,Cc1nc(Nc2ncc(C(=O)Nc3c(C)cccc3Cl)s2)cc(N2CCN(CCO)CC2)n1 [Dasatinib],-0.177 °C
5,COc1cc(N2CCC(N3CCN(C)CC3)CC2)ccc1Nc1ncnc(Nc2ccccc2S(=O)(=O)C(C)C)n1,-0.166 °C
6,CCN1CCN(Cc2ccc(-c3cc4c(N[C@H](C)c5ccccc5)ncnc4[nH]3)cc2)CC1,0.425 °C
7,CCOC(=O)c1c(CSc2ccccc2)n(C)c2cc(Br)c(O)c(CN(C)C)c12 [Arbidol HCl],0.0548 °C
8,Cn1cc(-c2cc(Oc3cc(F)c(NC(=O)C4(C(=O)Nc5ccccc5)CC4)cc3F)ccn2)cn1,-0.0154 °C
9,Cc1cc(Nc2nc(N[C@@H](C)c3ccc(F)cc3)c(C#N)cc2F)n[nH]1,0.0374 °C
10,CCOC(=O)c1[nH]c2cc(Cl)ccc2c1C(C(=O)NC(C)(C)C)N(C=O)Cc1ccc(Cl)cc1 (centres undefined),-0.171 °C
11,COc1cc(/C=C/c2ccc(OC)cc2OC)cc(OC)c1,-0.0473 °C
12,CO/N=C1\C[C@]2(C[C@@H]3C[C@@H](C/C=C(\C)C[C@@H](C)/C=C/C=C4\CO[C@@H]5[C@H](O)C(C)=C[C@@H](C(=O)O3)[C@]45O)O2)O[C@H](/C(C)=C/C(C)C)[C@H]1C [Moxidectin],-0.409 °C
13,CCCCN1CCCCC1C(=O)Nc1c(C)cccc1C (centres undefined) [Bupivacaine HCl],-0.0476 °C
14,C[C@H]1O[C@@H](Oc2c(-c3cc(O)c(O)c(O)c3)oc3cc(O)cc(O)c3c2=O)[C@@H](O)[C@@H](O)[C@@H]1O [Myricitrin],0.579 °C
15,CCOC(=O)C1=C(COCCN)NC(C)=C(C(=O)OC)[C@@H]1c1ccccc1Cl [(S)-Amlodipine Besylate],-0.0202 °C
16,N[C@@]1(C(=O)O)CS(=O)(=O)[C@H]2[C@H](C(=O)O)[C@H]21,-0.0102 °C
17,C=C1/C(=C\C=C2/CCC[C@]3(C)[C@@H]([C@H](C)/C=C/[C@H](C)C(C)C)CC[C@@H]23)C[C@@H](O)C[C@@H]1O [Doxercalciferol],0.19 °C
18,Cc1ccc2c(=O)c3cccc(CC(=O)O)c3oc2c1C [DMXAA (Vadimezan)],-0.183 °C
19,CCC(=C(c1ccc(O)cc1)c1ccc(OCCNC)cc1)c1ccccc1 [Endoxifen Z-isomer],0.00689 °C
20,O=C1Nc2ccccc2/C1=C/c1ccc(F)cc1,-0.103 °C
21,CC(COc1ccccc1)NC(C)C(O)c1ccc(O)cc1 (centres undefined) [Isoxsuprine hydrochloride],0.226 °C
22,C=CC(=O)Nc1ccc(CN2C(=O)N(c3cc(OC)cc(OC)c3)Cc3cnc(Nc4ccc(N5CCN(C)CC5)cc4)nc32)cc1,0.349 °C
23,Nc1ccc(S(=O)(=O)Nc2ccccn2)cc1 [Sulfapyridine],0.114 °C
24,Cn1cc(-c2ccncc2)c(-c2ccc(OCc3ccc4ccccc4n3)cc2)n1,-0.389 °C
25,O=C(O)[C@H]1O[C@@H](Oc2cc3oc(-c4ccccc4)cc(=O)c3c(O)c2O)[C@H](O)[C@@H](O)[C@@H]1O [Baicalin],0.212 °C
